Like-named read-outs stand apart in the source and are kept apart here. Some entries share one result that the patent states for a list of compounds.
Key:
E. coli K1 strain UTI89 [1] = conditions: for IC50: read-out: K1 phage IC50 (inhibition of K1 capsule formation); for Selectivity index (CC50/IC50): versus bladder 5637 cells
Text: The ability of the […] to bind to bacterial capsule, infect, and lyse E. coli UT189 was used as the primary assay to identify the effects of screened compounds on bacterial capsule formation. The phenotypic end-point assay measured the fluorescence generated by cellular processing of Alamar Blue as a direct indicator of cell viability. A total of […] compounds were screened using the primary assay. […] Hits were further evaluated using […] secondary assays for alternative measurement of compound-induced reduction in bacterial capsule formation (secondary assays 1 and 2) and specificity (secondary assays 3 and 4). Confirmed actives with an SI>5 were further investigated and subjected to chemical optimization, followed by secondary assay evaluation. Secondary assays more closely characterized the ability of the compounds to reduce bacterial capsule formation and can be used to examine the mechanism of action of the compounds. The combination of primary assay (to measure capsule reduction), counter assay (for general eukaryotic cell toxicity) and secondary assay (to measure reduction in capsule formation and specificity) were combined to allow a determination of probe efficacy, selectivity, and specificity.
A. Primary Assay: Screening for Inhibitors of Bacterial Capsule Biogenesis.
Primary assay: An end-point assay to measure the amount of K1 phage-induced bacterial cell lysis was employed to determine the compound effect on capsule biogenesis. K1 bacteriophage specifically binds the bacterial capsule during the initial stages of infection. Bacteria without capsule cannot be infected and lysed by the bacteriophage. […] A total of 338,740 compounds were screened at 100 μM in the primary screen Inhibition of phage lysis was calculated relative to the mean of the bacterial (positive) control on each microtiter plate. […] For calculation of S/B/Z value, and CV, the following formulae (in which SD stands for standard deviation) were used: S/B=mean signal/mean background; Z=1-3SD of sample+3SD of control mean of sample−mean of control; % CV=(SD mean signal/mean signal)×100.
IC50 values were calculated using a 4 parameter Levenburg-Marquardt algorithm, with the maximum and minimum locked at 0 and 100 respectively.
Primary assay: The primary assay was conducted in the 1,536 well plate format. Bacterial cultures of E. coli K1 strain UTI89 (cystitis isolate) and isogenic capsule mutant strains (as controls for phage infection) were grown and prepared at the screening center immediately prior to use. Overnight starting cultures of UTI89 were grown at 37° C., and inoculated into 1 liter of LB (starting OD600˜0.03), which was sufficient for screening 40 plates (including ˜10% waste) and ˜40,000 compounds as single points.
Control wells contained UTI89 (wt K1) with 0.5% DMSO as a simulated positive control; UTI89 with 0.5% DMSO and tetracycline for a negative growth control; and media plus vehicle control. 50 mL of LB Broth was inoculated with stock 150 μL E. coli UT189 and grown overnight at 37° C. The next day, cultures were diluted 1:75 in 1 L of LB Broth containing 0.5% DMSO. 3 μL of this culture was added to each plate well, and plates were incubated, inverted, at 37° C. for 2 hr. The K1F bacteriophage stock was diluted 1:8 in LB Broth containing 0.5% DMSO, and 1.5 μL of diluted phage (or media only) was added to the pre-plated test compound wells and appropriate control wells. The plates were centrifuged briefly, and then were incubated, inverted, at 37° C. for an additional 2 hr. Afterward, Alamar Blue reagent (Invitrogen, #DAL1100) was diluted 1:2 with LB broth and 1 μL was added to each plate well.

E. coli K1 strain UTI89 [2] = test: Secondary assay 2: T7 phage-mediated lysis assay; type: cell-based, Escherichia coli
Text: D. Secondary Assay 2: Screening for Inhibitors of Bacterial Capsule Biogenesis—T7 Lysis Inhibition
Purpose: This secondary assay measures the compound mechanistic specificity for inhibition of bacterial capsule formation and excludes inhibitors of phage replication using a different bacteriophage (T7). In this assay, an increase in phage-induced lysis correlates to a decrease in capsule formation.
Purpose: This secondary assay measures the compound mechanistic specificity for inhibition of bacterial capsule formation using a different bacterial phage (T7). In this assay, an increase in phage-induced lysis correlates to a decrease in capsule formation.
Assay Description: T7 phage-mediated lysis assay: This assay determined if the mechanism of action of the compound is inhibition of phage infectivity or replication. The T7 phage has a nearly identical genome to K1F, without encoding an endosialidase. Its cycle of replication is similar to that of K1F as well. However, T7 entry into E. coli is inhibited by K capsules. This secondary assay was conducted in the 96 well plate format. […] Compounds were added in quadruplicate to plates in a concentration dependent manner in the range of 100-0.39 μM, followed by addition of 100 μL of bacterial culture. 1% DMSO (final well concentration) was included. The plates were tape sealed and shaken vigorously for 1.5 hr. An initial OD600 reading was measured to identify compounds that cause growth retardation or bacterial killing in the absence of phage. Next, T7 phage (5 μL) was added to all of the test wells. The plates were resealed and shaken vigorously at 37° C., and measurements of OD600 for phage-mediated lysis were taken after 3 hr. True inhibitors of capsule yielded bacteria that were susceptible to T7 phage and lysed within 2 hr of the addition of phage. […] The positive control drug C7 (100 μM final well concentration) was used in this screen.
T7 phage counter assay. This secondary assay was performed as previously described and was used to distinguish compounds with phage inhibitory effects from true polysaccharide capsule inhibitors. […] Thus, the presence of a capsule inhibits T7-mediated lysis. In this assay, an increase in phage-induced lysis correlates to a decrease in capsule formation. True inhibitors of capsule yielded bacteria that were susceptible to T7 phage and lysed within 2 hr of the addition of phage. […] The positive control molecule C7 (100 μM final well concentration) was used in this screen.

Row | Compound | IC50 (E. coli K1 strain UTI89 [2]) | IC50 (E. coli K1 strain UTI89 [1]) | other results
1 | CCOc1ccc(-c2cc(NC(=O)c3ccc(Br)o3)c(C(=O)O)s2)cc1 [CID 23602086, 3-(5-Bromofuran-2-carboxamido)-5-(4-ethoxyphenyl)thiophene-2-carboxylic acid] | – | – | IC50 (E. coli K1 strain UTI89 [1]; listed as entry 7): < 10 µM; Selectivity index (CC50/IC50) (E. coli K1 strain UTI89 [1]): > 10
2 | O=C(Nc1cc(-c2ccc(C(F)(F)F)cc2)sc1C(=O)O)c1cccc(F)c1 [CID 53470418] | ≥ 10 µM | – | –
3 | CC(C)c1ccc(-c2cc(NC(=O)c3ccc(Br)o3)c(C(=O)O)s2)cc1 [CID 53470420] | < 10 µM | < 10 µM | –
4 | O=C(Nc1cc(-c2ccc(C(F)(F)F)cc2)sc1C(=O)O)c1ccc(Br)s1 [CID 53470428] | ≥ 10 µM | – | –
5 | Cc1ccc(-c2cc(NC(=O)c3cc4ccccc4o3)c(C(=O)O)s2)cc1 [CID 53470436] | ≥ 10 µM | – | –
6 | CC(C)c1ccc(-c2cc(NC(=O)c3c(F)cccc3F)c(C(=O)O)s2)cc1 [CID 53470439] | < 10 µM | < 10 µM | –
7 | O=C(Nc1cc(-c2ccc(OC(F)(F)F)cc2)sc1C(=O)O)c1ccc(Br)o1 [CID 53495057] | < 10 µM | < 10 µM | –
8 | CCOc1ccc(-c2cc(NC(=O)c3c(F)cccc3F)c(C(=O)O)s2)cc1 [ML317, 3-(2,6-difluorobenzamido)-5-(4-ethoxyphenyl)thiophene-2-carboxylic acid] | – | – | IC50 (E. coli K1 strain UTI89 [2]; listed as entry 5): < 10 µM; IC50 (E. coli K1 strain UTI89 [1]; listed as entry 5): < 10 µM; Selectivity index (CC50/IC50) (E. coli K1 strain UTI89 [1]; listed as entry 5): > 10

Source: patent publication US9688653B2, “Ethoxyphenyl thienyl compounds and methods for the treatment of bacterial infections” (Duke University, priority 2013, dated 2017)
